# Source: patent US20200332017A1
# These are yes or no findings as the source states them, for the method shown. Some binding calls cover weakened binding; strength is not graded here.
# B1: mouse anti-CD40 monoclonal antibody C1C1 (antibody, V domains shown)
# VH: EVKLVESGGGLVKPGASLKLSCAASGFTFSNYGMSWVRQNSDKRLEWVASISSGGDDTYYPDNVKGRCTISRENAKNTLYLEMSSLKTEDTALYYCTRAGGKAMDYWGQGTSVTVST
# VL: DIVLTQSPATLSVIPGNSVSLSCRASQSIRDNLHWYQQKSHESPRLLINYASQSISGIPSRFSGSGSGTDFTLTINSVETEDFGIYFCQQFNSWPLTFGGGTKLELK
# B2: humanized antibody huC1C1-V7 (antibody, human IgG1, kappa, V domains shown)
# VH: EVQLVESGGGVVQPGRSLRLSCAASGFTFSNYGMSWVRQAPGKGLEWVASISSGGDDTYYPDNVKGRFTISRDNSKNTLYLQMNSLRAEDTAVYYCTRAGGKAMDYWGQGTLVTVSS
# VL: EIVLTQSPATLSLSPGERATLSCRASQSIRDNLHWYQQKPGQAPRLLIYYASQSISGIPARFSGSGSGTDFTLTISSLEPEDFAVYYCQQFNSWPLTFGQGTKVEIKR
# Target: cynomolgus monkey CD40-his protein (Acro biosystems, Cat # CD0-052H6) (cynomolgus monkey) (UniProt G7PG38)
# Assay: SPR, Biacore
row,Binder,binding
1,B1,binds
2,B2,binds
